{"source": "PubChem BioAssay AID1259308 (NCATS, 2017)", "purpose": "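Genes whose loss raises luciferase production in HEK293 cells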 (primary screen)", "cells": "human HEK293 embryonic kidney cells stably expressing firefly luciferase (HEK-CMV-Luc2-Hygro)", "reagent": "single siRNA against human genes, 0.8 pmol siRNA per well", "timing": "72 h", "measured": "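Luciferase light (ONE-Glo) measured on one replicate plate set and viability (CellTiter-Glo) on the other, scaled to a negative control siRNA, with robust z-scores and luciferase per cell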", "scale": "total luciferase, z-score and total luciferase, % of control: higher = more reporter protein produced", "active means": "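An siRNA counts as active if its total luciferase robust z-score exceeds 3; genes with two or more such siRNAs out of three were retested with fresh siRNAs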", "meaning of the calls": "active = raised luciferase; inactive = no rise", "note": "Here is one part, drawn at random, of about 59,000 reagents tested. About 1,510 of them (2.6%) were called active. 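Calls use total luciferase alone and ignore viability, so some active siRNAs may act by altering cell number.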 Further read-outs or replicates are left out here. No sequences are given here."}
{"gene":"CDH2 (cadherin 2)","PubChem SID":"SID160740353","total luciferase, z-score":-0.736,"total luciferase, % of control":67.2,"Outcome":"inactive"}
{"gene":"CDH2 (cadherin 2)","PubChem SID":"SID160740363","total luciferase, z-score":0.364,"total luciferase, % of control":89.1,"Outcome":"inactive"}
{"gene":"CDH2 (cadherin 2)","PubChem SID":"SID160740374","total luciferase, z-score":-1.12,"total luciferase, % of control":59.7,"Outcome":"inactive"}
{"gene":"BLTP2 (bridge-like lipid transfer protein family member 2)","PubChem SID":"SID160722854","total luciferase, z-score":-0.138,"total luciferase, % of control":79.1,"Outcome":"inactive"}
{"gene":"BLTP2 (bridge-like lipid transfer protein family member 2)","PubChem SID":"SID160722855","total luciferase, z-score":0.497,"total luciferase, % of control":91.8,"Outcome":"inactive"}
{"gene":"BLTP2 (bridge-like lipid transfer protein family member 2)","PubChem SID":"SID160722856","total luciferase, z-score":0.298,"total luciferase, % of control":87.8,"Outcome":"inactive"}
{"gene":"LMNTD1 (lamin tail domain containing 1)","PubChem SID":"SID160759782","total luciferase, z-score":-0.0413,"total luciferase, % of control":81.1,"Outcome":"inactive"}
{"gene":"LMNTD1 (lamin tail domain containing 1)","PubChem SID":"SID160759783","total luciferase, z-score":0.542,"total luciferase, % of control":92.7,"Outcome":"inactive"}
{"gene":"LMNTD1 (lamin tail domain containing 1)","PubChem SID":"SID160759784","total luciferase, z-score":-0.506,"total luciferase, % of control":71.8,"Outcome":"inactive"}

Reformatted: 3 of the entries above
gene,PubChem SID,"total luciferase, z-score","total luciferase, % of control",Outcome
LMNTD1 (lamin tail domain containing 1),SID160759782,-0.0413,81.1,inactive
LMNTD1 (lamin tail domain containing 1),SID160759783,0.542,92.7,inactive
LMNTD1 (lamin tail domain containing 1),SID160759784,-0.506,71.8,inactive

The listing continues:
{"gene":"TMEM131L (transmembrane 131 like)","PubChem SID":"SID160735804","total luciferase, z-score":0.486,"total luciferase, % of control":91.5,"Outcome":"inactive"}
{"gene":"TMEM131L (transmembrane 131 like)","PubChem SID":"SID160735805","total luciferase, z-score":-0.188,"total luciferase, % of control":78.1,"Outcome":"inactive"}
{"gene":"TMEM131L (transmembrane 131 like)","PubChem SID":"SID160735806","total luciferase, z-score":0.0681,"total luciferase, % of control":83.2,"Outcome":"inactive"}
{"gene":"C10orf53 (chromosome 10 open reading frame 53)","PubChem SID":"SID160762739","total luciferase, z-score":0.201,"total luciferase, % of control":85.9,"Outcome":"inactive"}
{"gene":"C10orf53 (chromosome 10 open reading frame 53)","PubChem SID":"SID160762741","total luciferase, z-score":0.158,"total luciferase, % of control":85,"Outcome":"inactive"}
{"gene":"C10orf53 (chromosome 10 open reading frame 53)","PubChem SID":"SID160762742","total luciferase, z-score":0.197,"total luciferase, % of control":85.8,"Outcome":"inactive"}
{"gene":"ZBTB3 (zinc finger and BTB domain containing 3)","PubChem SID":"SID160749580","total luciferase, z-score":-0.183,"total luciferase, % of control":78.2,"Outcome":"inactive"}
{"gene":"ZBTB3 (zinc finger and BTB domain containing 3)","PubChem SID":"SID160749581","total luciferase, z-score":0.0955,"total luciferase, % of control":83.8,"Outcome":"inactive"}
{"gene":"ZBTB3 (zinc finger and BTB domain containing 3)","PubChem SID":"SID160749582","total luciferase, z-score":-0.685,"total luciferase, % of control":68.3,"Outcome":"inactive"}
{"gene":"YJU2 (YJU2 splicing factor homolog)","PubChem SID":"SID160744128","total luciferase, z-score":0.447,"total luciferase, % of control":90.8,"Outcome":"inactive"}
{"gene":"YJU2 (YJU2 splicing factor homolog)","PubChem SID":"SID160744129","total luciferase, z-score":1.24,"total luciferase, % of control":107,"Outcome":"inactive"}
{"gene":"YJU2 (YJU2 splicing factor homolog)","PubChem SID":"SID160744130","total luciferase, z-score":0.494,"total luciferase, % of control":91.7,"Outcome":"inactive"}
